Consider 57 compounds from PubChem BioAssay AID2685 (National Center for Advancing Translational Sciences (NCATS), 2010).

The list shows a part of the results. These are further read-outs of the screen, such as a control signal, another cell line or another target. No call is given for them. Most of these compounds were active or inconclusive in the main read-out, so they are no random draw. Words in brackets tell the shape of the fitted curve; partial curves, single points and poor fits give uncertain potencies.

This experiment is described as follows: qHTS Assay for Lipid Storage Modulators in Drosophila S3 Cells.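 For cell number change: cells counted by Cell Tracker Red CMTPX staining in the red channel.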 Particulars: BODIPY lipid droplet fluorescence, 18-24 h; for cell number change: measured here: cell count max response, cells fed with added oleic acid. Put shortly:
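Laser-scanning cytometry quantifies lipid droplet accumulation (500–530 nm total intensity; droplet/cell object ratio) in oleic acid-fed (400 uM added) Drosophila S3 cells treated with a concentration series. 20 uM Triacsin C defined 100% inhibition.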

Where [1] appears, read: measured here: lipid fluorescence (Fed channel) AC50, cells fed with added oleic acid.
Where [2] appears, read: measured here: cell number channel AC50, cells fed with added oleic acid.

As to `CCC(=O)N1CCc2cc(S(=O)(=O)NC(Cc3ccccc3)C(=O)NC3CCCCC3)ccc21` (stereo not given), the cell number change is 10.2%. Besides, the half-maximal activity concentration (AC50) – broadly, the concentration at which the activity in the assay is half-maximal – under setting [1] is 13 µM [rising, partial curve].

Take `CC(C)(C)c1ccc(C(=O)CSc2n[nH]c(=O)[nH]c2=O)cc1`: the AC50 under setting [1] is 2.06 µM [falling, partial curve].

For the compound `O=c1[nH]c(C2CCCN(S(=O)(=O)c3ccccc3)C2)nc2c1nnn2Cc1ccc2c(c1)OCCO2` (stereo not given), the cell number change was -9.73%.

For `CCOC(=O)c1sc2nc(CSCC(=O)OCc3ccc(C(=O)OC)o3)[nH]c(=O)c2c1C`, the cell number change is -31.9%. Also, the AC50 under setting [2] was 32.6 µM [falling, single point]. Moreover, the concentration at half-maximal activity (AC50) under setting [1] is 0.13 µM [falling, full curve, poor fit].

Take `CCOc1ccc(CC(=O)N2CCC3(CC2)NCCc2[nH]cnc23)cc1`: under setting [1], the AC50 is 29.1 µM [rising, single point].

Consider `O=C(CSc1ccccc1)N1CCN(S(=O)(=O)c2cccs2)CC1`, for which the AC50 is 0.731 µM [rising, full curve] under setting [2] and 6.51 µM [rising, single point] under setting [1].

As to `O=C1c2ccccc2C(=O)N1CCc1nc(-c2ccncc2)no1`, the cell number change is -15.8%. Moreover, the half-maximal activity concentration (AC50) under setting [2] is 0.651 µM [falling, full curve, poor fit]. In addition, under setting [1], the AC50 was 0.146 µM [rising, full curve, poor fit].

Take `CC(C)Oc1cccc(OCCN2C(=O)c3ccccc3C2=O)c1`: the cell number change worked out at 187%. Further, under setting [2], the AC50 is 29.1 µM [rising, partial curve].

Turning to `CN1CCN(C(=O)c2c(NC(=O)c3ccco3)sc3c2CCC(C(C)(C)C)C3)CC1` (stereo not given), the cell number change was -0.834%.

Take `CCOC(=O)C(NC(=O)CC)(Nc1ccc(S(=O)(=O)Nc2cc(C)on2)cc1)C(F)(F)F` (stereo not given): the cell number change was -0.922%. In addition, under setting [1], the AC50 is 9.2 µM [falling, partial curve].

In the case of `CCOc1ccccc1NC(=O)c1cc(CC(C)C)oc1C`, the AC50 is 0.13 µM [falling, full curve, poor fit] under setting [2] and 0.13 µM [falling, full curve, poor fit] under setting [1].

For `O=C(NCCSc1c[nH]c2ccccc12)c1ccco1`, the cell number change is -20.2%. For the same compound, under setting [1], the AC50 is 20.6 µM [falling, single point].

On to `CCN(CC)S(=O)(=O)c1ccc(/C(O)=C(\C#N)c2nc3ccccc3n2C)cc1`, for which the cell number change is -10.9%. The AC50 under setting [2] is 0.259 µM [rising, full curve, poor fit]. The AC50 under setting [1] was 4.61 µM [rising, partial curve].

On to `Cc1ccc(-n2cc3c(-c4cccc(Br)c4)nnc(C)c3n2)cc1`, for which the cell number change was found to be 12.8%. Moreover, under setting [1], the AC50 is 5.8 µM [rising, partial curve].

With `Cc1nn(-c2ccccc2)c2c1C(O)n1c(nc3ccccc31)S2` (stereo not given), the cell number change is -90.8%. Further, under setting [2], the AC50 is 29.1 µM [falling, single point]. For the same compound, the AC50 under setting [1] is 11.6 µM [falling, single point].

As for `CN1CCN(CC#CC(C)(O)C2CC3C=CC2C3)CC1` (stereo not given), the cell number change is -40.4%. In addition, the AC50 under setting [2] is 0.00461 µM [falling, full curve, poor fit].

With `O=c1c(-c2nc3ccccc3s2)cccn1Cc1ccccc1`, the cell number change turned out to be 32.5%. Moreover, the AC50 under setting [2] is 23.1 µM [rising, single point].

Take `Cc1ccc(-c2ccccc2[C@@H]2C[C@H]3CN(C)C(=O)[C@]34CCCN24)o1`: the cell number change worked out at 31.1%. The AC50 under setting [2] was 23.1 µM [rising, single point].

Regarding `CCOc1cc(/C=N/NC(=O)c2ccncc2)ccc1OC(=O)c1ccccc1`, the AC50 under setting [1] was 17.8 µM [falling, partial curve].

In the case of `CCOC(=O)Cc1cnc(NC(=O)CSc2nc(C(C)C)cc(=O)[nH]2)s1`, the cell number change was found to be 7.89%.

For the compound `c1ccc(C(c2ccccc2)c2ccn[nH]2)cc1`, the cell number change was -6.14%. Under setting [1], the AC50 was 14.6 µM [falling, partial curve, poor fit].

For `O=C1Nc2ccccc2C(O)(C(=O)NCc2ccc3c(c2)OCO3)N1c1ccccc1` (stereo not given), the cell number change was 9.8%. The AC50 under setting [1] was 29.1 µM [rising, single point].

As to `C=CCOc1ccccc1C1C2=C(CC(C)(C)CC2=O)Nc2c1c(=O)n(C)c(=O)n2C` (stereo not given), the cell number change is -0.928%.

As for `O=Cc1ccc(C(=O)OCC(=O)N2CCCC2)cc1`, the cell number change was -3.6%. Moreover, under setting [1], the AC50 was 29.1 µM [falling, single point].

Take `O=C(Nc1nnc(SCc2ccc(Cl)cc2)s1)C1CC(=O)N(Cc2ccccc2)C1` (stereo not given): the cell number change was -19.6%. Also, the half-maximal activity concentration (AC50) under setting [1] was 0.0291 µM [falling, full curve, poor fit].

Turning to `Cc1oc(-c2ccc(Cl)cc2)nc1CN1CCC(C(=O)N2CCN(Cc3ccccc3)CC2)CC1`, the cell number change worked out at 2.21%. Under setting [1], the AC50 is 0.116 µM [rising, full curve, poor fit].

Turning to `CCCNc1nc2nc3ccccn3c(=O)c2cc1C(=O)NCCN1CCOCC1`, the cell number change came to 11.8%.

Turning to `Cc1cccnc1NC(=O)Cn1nc(C)c([N+](=O)[O-])c1C`, the AC50 reads like this: under setting [2], 1.03 µM [rising, partial curve]; under setting [1], 1.46 µM [rising, partial curve].

As for `CCCC1CC(c2csc(N)n2)CCO1` (stereo not given), the cell number change is 10.4%. The AC50 under setting [1] is 29.1 µM [rising, single point].

As to `COCCCn1c(SCC(=O)NCc2ccco2)nc2sc3c(c2c1=O)CCC3`, the cell number change is -27.9%. Moreover, the AC50 under setting [1] was 4.11 µM [falling, full curve, poor fit].

Regarding `CCC1Nc2ncnc(N3CCN(c4ccccn4)CC3)c2N(Cc2ccc(Cl)cc2)C1=O` (stereo not given), the cell number change is -31.4%. For the same compound, the AC50 under setting [2] was 6.51 µM [falling, partial curve]. Also, the AC50 under setting [1] was 29.1 µM [falling, partial curve, poor fit].

Take `O=C(NC1=NCCS1)C1CCCCC1`: the cell number change is -19.2%. Also, under setting [2], the AC50 was 0.731 µM [rising, single point].

As to `CNC(=O)CSc1nc2c([nH]c3ccccc32)c(=O)n1CCOC`, the cell number change came out at 12.3%. Further, under setting [1], the AC50 was 0.116 µM [rising, full curve, poor fit].

As to `Oc1ccc(Nc2nc(-c3ccc(O)cc3)cs2)cc1`, the cell number change is -152%. In addition, under setting [2], the AC50 is 29.1 µM [falling, partial curve]. In addition, the AC50 under setting [1] is 29.1 µM [falling, partial curve].

Regarding `CCOc1cccc(-c2cc(C(=O)Nc3ccon3)c3ccccc3n2)c1`, the cell number change is -17.5%.

With `Cc1cc(NC(=O)Cn2c(=O)c3c(ncn3CCC(C)C)n(Cc3ccccc3)c2=O)no1`, the cell number change was -16.9%. For the same compound, the AC50 under setting [1] was 2.59 µM [falling, partial curve, poor fit].

In the case of `CCN(CC)P1(=O)OC(c2cc(OC)c(OC)c(OC)c2)=Nc2c1c(C)nn2-c1ccccc1` (stereo not given), the AC50 is, setting by setting: under setting [2], 0.116 µM [rising, single point]; under setting [1], 0.411 µM [rising, partial curve].

Consider `O=C(Nc1cccc(-c2nn[nH]n2)c1)c1ccc(Br)s1`, for which the cell number change was determined as 3.23%. Further, under setting [1], the AC50 was 20.6 µM [rising, single point].

In the case of `O=c1[nH]oc2cc(Cl)ccc12`, the cell number change is 16%. Moreover, under setting [1], the half-maximal activity concentration (AC50) was 0.58 µM [rising, full curve, poor fit].

Turning to `CN(C)S(=O)(=O)N1CCN(CC(=O)Nc2ccc(Br)cc2)CC1`, the cell number change was 31.1%. For the same compound, under setting [2], the AC50 is 7.31 µM [rising, partial curve, poor fit].

As to `CCOc1ccc(/C=N/NC(=S)Nc2c(C)cccc2C)cc1`, the cell number change was -13.5%. Besides, the concentration at half-maximal activity (AC50) under setting [2] was 0.146 µM [rising, full curve].

As to `Cc1ccc(-n2ncc3c2CC(C)(C)CC3NC(=O)Cc2c(C)noc2C)cc1` (stereo not given), the cell number change was -17.3%. Moreover, under setting [1], the AC50 was 9.2 µM [falling, single point].

Take `C=CCc1cc(C(=O)N2CCCCC2)ccc1O`: the AC50 is, setting by setting: under setting [2], 0.00517 µM [falling, full curve, poor fit]; under setting [1], 6.51 µM [falling, single point].

Take `CCCc1ccc(-c2c(C)sc(N)c2C#N)cc1`: the cell number change was -71.3%. In addition, the AC50 under setting [2] is 14.6 µM [falling, partial curve]. Also, under setting [1], the AC50 is 14.6 µM [falling, partial curve].

`COc1ccc(C(CNC(=O)c2cccc(NS(=O)(=O)c3ccc(C)c(F)c3)c2)N(C)C)cc1` (stereo not given): under setting [1], the AC50 was 5.8 µM [rising, partial curve].

Consider `N=c1sc2ccccc2n1-c1ccccc1`, for which the cell number change was -25.2%. Further, the AC50 under setting [1] was 29.1 µM [falling, single point].

On to `CCCN(CCC)C(C)C(=O)NCC1(c2ccccc2)CCCC1` (stereo not given), for which the cell number change is -19.1%. For the same compound, the AC50 under setting [1] is 0.00651 µM [falling, full curve, poor fit].

On to `C/C(=N\NC(=S)NCc1ccccc1)C1CCCCC1`, for which the cell number change amounted to 56.3%. For the same compound, the AC50 under setting [2] is 0.058 µM [rising, full curve]. The AC50 under setting [1] is 6.51 µM [rising, partial curve, poor fit].

Turning to `CCN(CC)CC(=O)c1c(N)n(Cc2ccccc2)c(=O)n(C)c1=O`, the cell number change is 20.4%. Besides, the AC50 under setting [2] was 1.84 µM [rising, full curve, poor fit]. Also, the AC50 under setting [1] is 29.1 µM [rising, single point].

For the compound `Cc1ccc2c(c1)nnn2C1CCN(C(=O)c2cccs2)CC1`, the cell number change was found to be 16.3%. In addition, the AC50 under setting [2] was 0.651 µM [rising, single point].

Turning to `Cc1nc(NCCc2ccc(Cl)cc2)c2nnn(Cc3ccccc3)c2n1`, the cell number change worked out at 21.2%. Further, the AC50 under setting [2] was 1.3 µM [rising, full curve, poor fit]. Also, the AC50 under setting [1] is 6.51 µM [rising, partial curve, poor fit].

For `Cc1ccc(C)c(NC(=O)CCC(=O)NN=C2CCCC2)c1`, the AC50 under setting [1] was 29.1 µM [rising, single point].

On to `NNC(=O)c1cc2c(s1)CCCCCC2`, for which the cell number change was found to be 131%. Moreover, the AC50 under setting [1] is 29.1 µM [rising, single point].

Regarding `Cn1nnnc1SCC(=O)Nc1cc(C(C)(C)C)nn1-c1ccccc1`, the cell number change was 15.1%. Also, the AC50 under setting [2] was 0.13 µM [falling, full curve, poor fit].

Consider `CC(C)Oc1cccc(C(=O)NC(=S)NCc2cccnc2)c1`, for which the cell number change was -4.1%. Moreover, the AC50 under setting [1] was 1.03 µM [falling, partial curve, poor fit].

For the compound `NC(=O)N/N=C/c1cn(-c2ccccc2)nc1-c1cccs1`, the cell number change is -41.5%. Under setting [2], the AC50 was 0.82 µM [falling, full curve, poor fit]. Further, under setting [1], the AC50 was 18.4 µM [falling, partial curve].

`COc1ccc(C2=NCN(c3ccc(C)cc3)C(=S)N2)cc1`: the cell number change was -83.2%. For the same compound, the AC50 under setting [2] was 16.4 µM [falling, single point]. Further, under setting [1], the AC50 was 18.4 µM [falling, single point].
